# Taken from: PubChem BioAssay AID686938 (Drosophila RNAi Screening Center, 2013)
# Aim: 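Looking for CRAC channel components and the factors controlling them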 (primary screen)
# Cells: Drosophila S2R+ cells
# Reagents: long dsRNA against Drosophila genes, about 0.25 µg dsRNA per well, roughly 10,000 cells
# Time to read-out: 5 days of knock-down before the calcium assay
# Treatment: thapsigargin (SERCA pump blocker) to empty calcium stores; entry signal taken 4 min after adding it
# Measurement: 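Duplicate raw fluo-4 intensities per well from a plate reader, at rest and four minutes after thapsigargin emptied calcium stores; entry-to-rest ratio filled for only some wells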
# Scale: calcium entry signal: higher = stronger calcium signal after store depletion; resting calcium signal: higher = higher resting calcium signal
# Hit rule: 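Hit if the duplicate-averaged plate z-score for entry over resting signal is under −3; wells with weak total dye signal (Fmax z < −2) or more than 5 off-targets removed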
# Calls: active = strongly reduced calcium entry; inactive = no strong reduction
# The screen tested about 23,000 reagents; this is a random part of those that have a named target and a result. Over the whole deposit, 75 (0.33%) are marked active. 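Raw plate signals without normalisation; calls rest on plate z-scores that were not deposited; ratio present for only 364 wells.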 Entries without a mark were called inactive. Not given: the dose of the treatment.
The first 6 records, ahead of the listing:
gene knocked down,dsRNA,"calcium entry signal, replicate 1 (fluorescence units)","calcium entry signal, replicate 2 (fluorescence units)","resting calcium signal, replicate 1 (fluorescence units)","resting calcium signal, replicate 2 (fluorescence units)"
nAChRalpha5,DRSC01360,1.83e7,3.10e7,1.10e7,1.44e7
nAChRalpha5,DRSC01946,4.92e7,3.19e7,2.08e7,1.50e7
nAChRalpha5,DRSC01947,5.10e7,2.85e7,2.17e7,1.45e7
nAChRalpha5,DRSC22785,4.58e7,3.01e7,2.14e7,1.32e7
Cyp6a13,DRSC07375,3.72e7,3.48e7,1.52e7,1.69e7
p120ctn,DRSC07753,3.35e7,3.83e7,1.70e7,1.67e7

Main list, from the start:
gene knocked down,dsRNA,"calcium entry signal, replicate 1 (fluorescence units)","calcium entry signal, replicate 2 (fluorescence units)","resting calcium signal, replicate 1 (fluorescence units)","resting calcium signal, replicate 2 (fluorescence units)"
nAChRalpha5,DRSC01360,1.83e7,3.10e7,1.10e7,1.44e7
nAChRalpha5,DRSC01946,4.92e7,3.19e7,2.08e7,1.50e7
nAChRalpha5,DRSC01947,5.10e7,2.85e7,2.17e7,1.45e7
nAChRalpha5,DRSC22785,4.58e7,3.01e7,2.14e7,1.32e7
Cyp6a13,DRSC07375,3.72e7,3.48e7,1.52e7,1.69e7
p120ctn,DRSC07753,3.35e7,3.83e7,1.70e7,1.67e7
CG17104,DRSC02573,4.71e7,,2.33e7,
CG14072,DRSC02375,2.96e7,3.73e7,1.44e7,1.58e7
CG14752,DRSC06488,4.38e7,3.89e7,1.97e7,1.68e7
CG15213,DRSC10213,3.43e7,4.78e7,1.70e7,2.03e7
CG6733,DRSC16103,4.44e7,5.27e7,2.24e7,2.46e7
roh,DRSC04003,2.55e7,3.74e7,1.33e7,1.63e7
Skadu,DRSC01490,2.81e7,4.33e7,1.60e7,1.91e7
Imp,DRSC18857,3.73e7,3.50e7,1.71e7,1.83e7
Imp,DRSC18861,3.45e7,3.45e7,1.61e7,1.70e7
Imp,DRSC20255,4.35e7,3.94e7,2.06e7,1.82e7
Imp,DRSC21907,3.38e7,6.40e7,1.60e7,3.23e7
CG32988,DRSC02692,2.37e7,3.11e7,1.06e7,1.36e7
TfIIA-L,DRSC16882,2.20e7,2.88e7,1.17e7,1.47e7
ec,DRSC17285,3.08e7,3.23e7,1.53e7,1.32e7
ec,DRSC17286,2.66e7,3.21e7,1.44e7,1.31e7
ec,DRSC18658,2.40e7,3.51e7,1.27e7,1.49e7
aqz,DRSC16570,6.24e7,4.41e7,3.25e7,2.10e7
CG7275,DRSC10796,3.23e7,2.60e7,2.74e7,1.52e7
Fie,DRSC08158,5.14e7,3.62e7,3.26e7,1.58e7
Clk,DRSC11117,3.01e7,4.65e7,1.52e7,2.17e7
CG12951,DRSC14579,2.16e7,2.17e7,1.06e7,1.21e7
wrapper,DRSC04723,3.51e7,,1.64e7,
CG11695,DRSC19416,2.94e7,3.88e7,1.53e7,1.76e7
lncRNA:CR43302,DRSC12668,3.70e7,6.16e7,1.79e7,2.70e7
Cyp6a9,DRSC07385,2.87e7,4.04e7,1.45e7,1.60e7
Nup133,DRSC16150,4.97e7,3.06e7,2.61e7,1.64e7
Atg16,DRSC15052,2.86e7,4.11e7,1.29e7,1.81e7
Atg16,DRSC15300,3.63e7,5.60e7,1.91e7,2.33e7
Atg16,DRSC15375,4.32e7,6.00e7,2.26e7,2.41e7
Amyrel,DRSC05920,4.15e7,3.43e7,1.87e7,1.69e7
Elba2,DRSC00731,4.54e7,,1.92e7,
CG14551,DRSC14894,3.23e7,5.24e7,1.78e7,2.39e7
zip,DRSC04725,2.62e7 (active),5.56e7,1.69e7,3.34e7
zip,DRSC22489,3.37e7 (active),6.07e7,2.06e7,4.07e7
Wee1,DRSC03635,3.78e7,3.19e7,1.77e7,1.59e7
Wee1,DRSC23318,3.71e7,4.00e7,1.75e7,1.76e7
CG10165,DRSC02017,3.58e7,,1.94e7,
CG43329,DRSC11672,2.81e7,5.83e7,1.49e7,2.43e7
Csas,DRSC22390,2.58e7,2.49e7,1.32e7,1.02e7
CG4646,DRSC06876,2.28e7,3.80e7,1.23e7,1.57e7
Yif1,DRSC15817,2.77e7,3.80e7,1.48e7,1.50e7
Uev1A,DRSC09763,4.91e7,4.94e7,3.14e7,2.01e7
CG15253,DRSC01871,5.22e7,3.59e7,2.09e7,1.55e7
CG9945,DRSC07347,2.40e7,3.21e7,1.24e7,1.47e7
Kap-alpha1,DRSC11356,3.01e7,4.48e7,1.52e7,2.04e7
Alg2,DRSC08298,2.89e7,2.22e7,2.08e7,9.82e6
lin,DRSC07644,2.36e7,2.37e7,1.10e7,1.14e7
CG2641,DRSC15441,4.30e7,3.78e7,1.98e7,1.63e7
CG15563,DRSC15101,3.56e7,6.41e7,1.96e7,2.57e7
BomBc1,DRSC06501,5.00e7,5.64e7,2.02e7,2.64e7
Hira,DRSC18672,3.12e7,3.95e7,1.39e7,1.74e7
Lcp65Af,DRSC11213,2.62e7,3.09e7,1.22e7,1.31e7
